PubChem BioAssay AID652272 | Drosophila RNAi Screening Center | 2013
Aim: 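Finding fly genes that regulate Hedgehog signal transduction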 (primary screen). System: Drosophila clone 8 (Cl8) cells. Reagents: long dsRNA against Drosophila genes. Measurement: 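Plate reader light from a firefly reporter under a ptc promoter fragment that responds to Hedgehog, with Renilla light as transfection reference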. Reading the numbers: firefly Hh reporter signal: higher = more ptc reporter light; Renilla reference signal: higher = more Renilla control light. Hit rule: 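Hit when the z-score averaged over two replicates is under -2 or over +3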. Meaning of the calls: active = hit: reporter lowered or raised; inactive = not a hit.
In all, the deposit lists about 21,000 reagents; shown is an unselected part of those that have a named target and a result. Over the whole deposit, 503 (2.4%) were called active. 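Raw plate light values, not normalised; calls rest on replicate z-scores that were not deposited; hits include reporter decreases as well as increases.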 A plus sign joins genes that one reagent is predicted to hit. Not stated in the record: the amount of reagent, the time to read-out.

no.	gene	amplicon	firefly Hh reporter signal, replicate 1	firefly Hh reporter signal, replicate 2	firefly Hh reporter signal, replicate 3	Renilla reference signal, replicate 1	Renilla reference signal, replicate 2	call
1	gas	DRSC04521	66208	70550		1479	6224	inactive
2	Csgalnact	DRSC06228	67656	29849		1942	2874	inactive
3	CG18599	DRSC15357	7.39e5	7.94e5	1.52e5	46156	6544	inactive
4	GAPsec	DRSC10564	1.17e5	70647		4923	2897	inactive
5	CG7084	DRSC16194	1.55e5	96436		6400	4240	inactive
6	Pxt	DRSC17040	5.77e5	95057		27146	3236	inactive
7	PGRP-LD + Pmi	DRSC10512	1.09e5	1.05e5		4358	4773	inactive
8	PGRP-LD + Pmi	DRSC10513	83216	90377		8521	6326	inactive
9	rho-4	DRSC19761	1.49e5	1.11e5		3213	2827	inactive
10	rho-4	DRSC19762	82432	2.72e5		2780	10965	inactive
11	CG43075	DRSC19074	7.52e5	2.67e5		43111	5147	inactive
12	l(2)41Ab	DRSC21007	7.24e5	2.69e5		39196	6407	inactive
13	CG12519	DRSC10311	1.05e5	1.26e5		3819	3040	inactive
14	Adar	DRSC17725	76202	2.32e5		2404	9837	inactive
15	CG43376	DRSC02537	74609	34545		1992	3872	inactive
16	CG15142	DRSC02443	1.15e5	46343		3577	4576	inactive
17	CG3176 + CR18166 + CG32817	DRSC17271	4.57e5	1.84e5		21795	3867	inactive
18	CG3176 + CR18166 + CG32817	DRSC17282	4.35e5	1.73e5		22979	3753	inactive
19	CG3176 + CR18166 + CG32817	DRSC18288	90960	74273		2178	2432	inactive

In a second layout: 7 of the entries above.
gene | amplicon | firefly Hh reporter signal, replicate 1 | firefly Hh reporter signal, replicate 2 | firefly Hh reporter signal, replicate 3 | Renilla reference signal, replicate 1 | Renilla reference signal, replicate 2 | call
rho-4 | DRSC19761 | 1.49e5 | 1.11e5 | – | 3213 | 2827 | inactive
rho-4 | DRSC19762 | 82432 | 2.72e5 | – | 2780 | 10965 | inactive
CG43075 | DRSC19074 | 7.52e5 | 2.67e5 | – | 43111 | 5147 | inactive
l(2)41Ab | DRSC21007 | 7.24e5 | 2.69e5 | – | 39196 | 6407 | inactive
CG12519 | DRSC10311 | 1.05e5 | 1.26e5 | – | 3819 | 3040 | inactive
Adar | DRSC17725 | 76202 | 2.32e5 | – | 2404 | 9837 | inactive
CG43376 | DRSC02537 | 74609 | 34545 | – | 1992 | 3872 | inactive

More entries:
no.	gene	amplicon	firefly Hh reporter signal, replicate 1	firefly Hh reporter signal, replicate 2	firefly Hh reporter signal, replicate 3	Renilla reference signal, replicate 1	Renilla reference signal, replicate 2	call
20	side	DRSC14523	2.05e5	5.23e5	1.80e5	6730	4474	inactive
21	side	DRSC14716	1.56e5	98160		5738	2230	inactive
22	side	DRSC14717	1.37e5	1.23e5		5269	2955	inactive
23	side	DRSC14718	1.30e5	1.04e5		4983	2428	inactive
24	side	DRSC14721	1.66e5	1.48e5		5737	3622	inactive
25	CG13795	DRSC02299	1.15e5	58994		2397	6024	inactive
26	CG31862	DRSC01245	4.57e5	2.73e5		17242	12989	inactive
27	Acat2	DRSC08630	1.22e5	65651		4304	5670	inactive
28	Cph	DRSC17507	5.11e5	1.96e5		29954	4512	inactive
29	Cph	DRSC18434	51792	2.39e5		2019	10023	inactive
30	GC	DRSC08396	65894	39977		1961	3064	inactive
31	TppII	DRSC07565	1.20e5	35952		4476	1298	inactive
32	CG12929	DRSC06242	1.41e5	93234		3488	7114	inactive
33	Rai1	DRSC20157	63643	1.65e5		2288	7107	inactive
34	CG11403	DRSC18532	94080	73729		1264	2544	inactive
35	colt	DRSC00808	58373	74833		2903	3204	inactive
36	HLH4C	DRSC18670	1.32e5	5.91e5	4.05e5	3761	2994	inactive
37	CG15369	DRSC18041	72234	1.20e5		2258	4860	inactive
38	GstE14	DRSC06881	1.03e5	56201		3137	4839	inactive
39	sau	DRSC00694	1.11e5	80677		4615	3812	inactive
40	mus201 + Chrac-14	DRSC03568	95597	51130		2259	4420	inactive
41	mus201 + Chrac-14	DRSC03575	72880	38644		1802	3584	inactive
42	Nup154	DRSC03384	51217	47698		2632	2525	inactive
43	CG15233	DRSC04967	1.02e5	66101		4083	2661	inactive
44	CG6048	DRSC18398	50725	1.05e5		1325	4976	inactive
45	ppk3	DRSC04275	1.10e5	68754		2371	5767	inactive
46	CG5160	DRSC02821	1.56e5	68145		3970	7014	inactive
47	Nxt1	DRSC04630	64040	35649		1637	3669	inactive
48	Sema5c	DRSC11279	40722	49288	36816	5671	3280	inactive
49	CG9849	DRSC04573	1.19e5	98153		3211	8602	inactive
50	Osi20	DRSC12568	83275	1.68e5		2629	4112	inactive
51	CG17754	DRSC18131	88760	60763		2055	1539	inactive
52	Grx5	DRSC19593	99322	2.15e5		3949	9737	inactive
53	CG5167	DRSC15728	95680	1.03e5		3275	2743	inactive
54	Tsp29Fb	DRSC03233	1.03e5	46214		2973	6018	inactive
55	Cht5	DRSC16470	2.01e5	1.35e5		7104	5181	inactive
56	CG6052	DRSC10574	96041			3786	2747	inactive
57	CG14219	DRSC19576	1.08e5	2.45e5		4512	10451	inactive
